Reference: paper PMC9760428
Results are given in words; binding and its absence hold for the method and conditions named. In cells and extracts the contact can be indirect. Some binding calls cover weakened binding; strength is not graded here.

Amino acid sequences for entries named in this document (tags omitted).
UniProt Q16665: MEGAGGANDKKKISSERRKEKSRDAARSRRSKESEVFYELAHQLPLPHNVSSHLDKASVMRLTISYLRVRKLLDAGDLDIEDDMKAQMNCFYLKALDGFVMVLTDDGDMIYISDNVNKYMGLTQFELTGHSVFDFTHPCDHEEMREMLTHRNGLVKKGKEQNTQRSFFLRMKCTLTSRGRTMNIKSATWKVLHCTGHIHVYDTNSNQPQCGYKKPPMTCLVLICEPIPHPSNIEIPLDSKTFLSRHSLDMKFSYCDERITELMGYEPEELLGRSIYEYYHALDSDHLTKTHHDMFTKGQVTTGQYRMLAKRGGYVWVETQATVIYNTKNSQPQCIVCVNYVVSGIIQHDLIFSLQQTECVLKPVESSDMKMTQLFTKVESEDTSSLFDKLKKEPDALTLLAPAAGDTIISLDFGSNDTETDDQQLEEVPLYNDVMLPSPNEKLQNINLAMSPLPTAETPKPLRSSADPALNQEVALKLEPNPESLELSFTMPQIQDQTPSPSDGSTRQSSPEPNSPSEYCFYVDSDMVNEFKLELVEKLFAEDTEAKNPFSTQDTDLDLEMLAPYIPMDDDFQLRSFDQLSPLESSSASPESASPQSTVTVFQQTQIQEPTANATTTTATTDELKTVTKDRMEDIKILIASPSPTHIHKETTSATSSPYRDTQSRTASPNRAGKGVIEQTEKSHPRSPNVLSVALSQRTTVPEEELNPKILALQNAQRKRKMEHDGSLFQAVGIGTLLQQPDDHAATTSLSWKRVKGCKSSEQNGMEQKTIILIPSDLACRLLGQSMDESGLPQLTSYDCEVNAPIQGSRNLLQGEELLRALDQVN
UniProt P46937: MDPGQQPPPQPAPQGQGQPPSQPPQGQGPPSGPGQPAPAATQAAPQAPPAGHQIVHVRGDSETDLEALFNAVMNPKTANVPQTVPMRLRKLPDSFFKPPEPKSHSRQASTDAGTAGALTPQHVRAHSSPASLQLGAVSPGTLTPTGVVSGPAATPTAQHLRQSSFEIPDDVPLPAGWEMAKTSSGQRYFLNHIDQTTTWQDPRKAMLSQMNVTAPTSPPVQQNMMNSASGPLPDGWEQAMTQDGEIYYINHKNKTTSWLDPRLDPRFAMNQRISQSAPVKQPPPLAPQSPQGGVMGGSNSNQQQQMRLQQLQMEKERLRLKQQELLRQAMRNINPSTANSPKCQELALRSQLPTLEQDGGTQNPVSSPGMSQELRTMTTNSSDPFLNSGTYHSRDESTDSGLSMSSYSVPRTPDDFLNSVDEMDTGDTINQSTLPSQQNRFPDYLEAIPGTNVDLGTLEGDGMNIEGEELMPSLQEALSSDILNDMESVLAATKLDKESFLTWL

Molecular target: hypoxia-inducible factor 1α (human (endogenous in BCPAP and TPC-1 cells)) (UniProt Q16665)
Assay: co-IP; endogenous proteins in lysate of PTC cells after hypoxia (1% O2) for 24 h, with 10 μM MG132; HIF-1α, YAP or IgG antibody overnight at 4 °C, protein A/G-agarose beads, western blotting

binding: binds
Substance: yes-associated protein (from UniProt P46937 1-504)
